At least one compound was matched to its structure with a doubt left.
Tested on: glmS ribozyme
Assay: high-throughput fluorescence screen with bimolecular glmS ribozyme (fluorescein/cy3-labeled substrate)
Format: biochemical, S. aureus
Conditions: fluorescence ratio

C[N+](C)(C)C1C(O)O[C@H](COP(=O)(O)O)C(O)[C@@H]1O (stereo partly shown) [Me3N-Gln 6P, 2-(trimethylammonio)-2-deoxyglucose 6-phosphate]
Fl21 h/Flg h: 1.27
